The values that follow come from PMC10733476, “OsDWARF10, transcriptionally repressed by OsSPL3, regulates the nutritional metabolism of polished rice”.

For at least one entry, the source does not settle the construct or the ends of the probe. For part of these data: Negatives hold for the conditions tested. Tags and fusion partners may be left off the protein sequences shown. For part of these data: At least one verdict rests on a figure or table, not on a statement of the authors.

The target in data set [1] is T1, OsSPL3 (UniProt A2X0Q6).
T1 sequence (looked up, limits assumed): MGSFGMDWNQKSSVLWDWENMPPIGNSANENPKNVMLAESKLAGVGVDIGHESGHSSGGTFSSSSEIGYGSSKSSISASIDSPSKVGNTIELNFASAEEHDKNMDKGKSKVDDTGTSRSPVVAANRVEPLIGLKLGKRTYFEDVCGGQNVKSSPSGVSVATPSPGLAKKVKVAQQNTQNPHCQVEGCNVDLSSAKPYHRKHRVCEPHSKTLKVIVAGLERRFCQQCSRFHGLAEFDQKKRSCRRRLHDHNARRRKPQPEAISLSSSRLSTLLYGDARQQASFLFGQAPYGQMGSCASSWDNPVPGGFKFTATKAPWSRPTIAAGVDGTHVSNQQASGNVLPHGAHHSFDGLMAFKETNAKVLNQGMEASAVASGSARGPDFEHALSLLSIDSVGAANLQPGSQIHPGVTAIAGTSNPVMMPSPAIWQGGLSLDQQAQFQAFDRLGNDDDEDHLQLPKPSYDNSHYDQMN
Description: competition with a labelled probe. The following applies: 750 mM NaCl, 25 mM MgCl2, 100 mg/mL BSA, 50% glycerol, 5 mM DTT, recombinant protein, protein details: N-terminal 6xHis (pET28A).

Data set [2] addresses T1, OsSPL3. Description: EMSA. The following applies: 750 mM NaCl, 25 mM MgCl2, 100 mg/mL BSA, 50% glycerol, 5 mM DTT; recombinant protein; protein details: N-terminal 6xHis (pET28A); label: 5' FAM on F strand. (In general: A gel shift assay detects complexes by their altered migration in electrophoresis.)

Consider “CCACGCCCCACGTAACGTAGCGTACAGTGTACACCTGATTTCGCTCGGTC (double strand) [D10 S2_C]”, for which, in data set [1] (unlabelled competitor against FAM-D10 S2), the binding result was “binds”.
In the case of “CTCACACATGCTACTGATGATGAACGAACGGACGTTACGTAGCGCGCGGG (double strand) [D10 S1_M]”, the binding result in data set [2] is on record as “no binding”.
As to “CTCACACATGCTACTGATGATGTACGTACGGACGTTACGTAGCGCGCGGG (double strand) [D10 S1_C]”, the binding result in data set [1] (unlabelled competitor against FAM-D10 S1) was “binds”.
